The supplement of paper PMC11006884
The entries are a selection whose mix differs from that of the whole data set. Single values of this set are uncertain.

Chains of the proteins cited; added tags and fusions are not shown. Lines headed by an entry give the natural chain unless they say otherwise; changes in a name come on top.
UniProt Q68D10: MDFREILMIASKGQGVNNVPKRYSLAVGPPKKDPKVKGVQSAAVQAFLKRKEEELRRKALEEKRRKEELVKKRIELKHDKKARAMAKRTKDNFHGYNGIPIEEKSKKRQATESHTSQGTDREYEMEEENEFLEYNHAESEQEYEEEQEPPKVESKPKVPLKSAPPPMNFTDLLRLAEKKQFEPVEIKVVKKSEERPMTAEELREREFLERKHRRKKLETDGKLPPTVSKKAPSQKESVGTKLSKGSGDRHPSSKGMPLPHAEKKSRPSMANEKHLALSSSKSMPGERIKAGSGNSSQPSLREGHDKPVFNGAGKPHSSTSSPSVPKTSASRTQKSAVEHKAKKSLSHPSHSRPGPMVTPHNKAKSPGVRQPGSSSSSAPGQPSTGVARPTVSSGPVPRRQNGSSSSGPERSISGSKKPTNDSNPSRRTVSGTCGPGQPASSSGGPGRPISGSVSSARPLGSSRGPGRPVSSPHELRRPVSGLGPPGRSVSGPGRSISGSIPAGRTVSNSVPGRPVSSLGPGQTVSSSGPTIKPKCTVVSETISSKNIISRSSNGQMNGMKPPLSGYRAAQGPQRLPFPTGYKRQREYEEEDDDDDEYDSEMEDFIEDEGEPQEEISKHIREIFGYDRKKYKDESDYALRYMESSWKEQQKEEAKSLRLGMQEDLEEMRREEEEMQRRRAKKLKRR
UniProt Q6P1Q9: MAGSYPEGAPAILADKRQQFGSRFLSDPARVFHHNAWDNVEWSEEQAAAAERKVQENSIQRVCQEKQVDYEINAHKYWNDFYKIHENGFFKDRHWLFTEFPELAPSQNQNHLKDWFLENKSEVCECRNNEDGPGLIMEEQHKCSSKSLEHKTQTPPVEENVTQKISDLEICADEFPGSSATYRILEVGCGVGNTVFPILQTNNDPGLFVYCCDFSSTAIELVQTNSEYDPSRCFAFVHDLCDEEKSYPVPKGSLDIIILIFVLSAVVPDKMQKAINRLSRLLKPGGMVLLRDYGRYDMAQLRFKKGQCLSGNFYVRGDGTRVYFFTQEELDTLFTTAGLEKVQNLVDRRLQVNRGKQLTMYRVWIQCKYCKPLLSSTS
UniProt Q5UIP0: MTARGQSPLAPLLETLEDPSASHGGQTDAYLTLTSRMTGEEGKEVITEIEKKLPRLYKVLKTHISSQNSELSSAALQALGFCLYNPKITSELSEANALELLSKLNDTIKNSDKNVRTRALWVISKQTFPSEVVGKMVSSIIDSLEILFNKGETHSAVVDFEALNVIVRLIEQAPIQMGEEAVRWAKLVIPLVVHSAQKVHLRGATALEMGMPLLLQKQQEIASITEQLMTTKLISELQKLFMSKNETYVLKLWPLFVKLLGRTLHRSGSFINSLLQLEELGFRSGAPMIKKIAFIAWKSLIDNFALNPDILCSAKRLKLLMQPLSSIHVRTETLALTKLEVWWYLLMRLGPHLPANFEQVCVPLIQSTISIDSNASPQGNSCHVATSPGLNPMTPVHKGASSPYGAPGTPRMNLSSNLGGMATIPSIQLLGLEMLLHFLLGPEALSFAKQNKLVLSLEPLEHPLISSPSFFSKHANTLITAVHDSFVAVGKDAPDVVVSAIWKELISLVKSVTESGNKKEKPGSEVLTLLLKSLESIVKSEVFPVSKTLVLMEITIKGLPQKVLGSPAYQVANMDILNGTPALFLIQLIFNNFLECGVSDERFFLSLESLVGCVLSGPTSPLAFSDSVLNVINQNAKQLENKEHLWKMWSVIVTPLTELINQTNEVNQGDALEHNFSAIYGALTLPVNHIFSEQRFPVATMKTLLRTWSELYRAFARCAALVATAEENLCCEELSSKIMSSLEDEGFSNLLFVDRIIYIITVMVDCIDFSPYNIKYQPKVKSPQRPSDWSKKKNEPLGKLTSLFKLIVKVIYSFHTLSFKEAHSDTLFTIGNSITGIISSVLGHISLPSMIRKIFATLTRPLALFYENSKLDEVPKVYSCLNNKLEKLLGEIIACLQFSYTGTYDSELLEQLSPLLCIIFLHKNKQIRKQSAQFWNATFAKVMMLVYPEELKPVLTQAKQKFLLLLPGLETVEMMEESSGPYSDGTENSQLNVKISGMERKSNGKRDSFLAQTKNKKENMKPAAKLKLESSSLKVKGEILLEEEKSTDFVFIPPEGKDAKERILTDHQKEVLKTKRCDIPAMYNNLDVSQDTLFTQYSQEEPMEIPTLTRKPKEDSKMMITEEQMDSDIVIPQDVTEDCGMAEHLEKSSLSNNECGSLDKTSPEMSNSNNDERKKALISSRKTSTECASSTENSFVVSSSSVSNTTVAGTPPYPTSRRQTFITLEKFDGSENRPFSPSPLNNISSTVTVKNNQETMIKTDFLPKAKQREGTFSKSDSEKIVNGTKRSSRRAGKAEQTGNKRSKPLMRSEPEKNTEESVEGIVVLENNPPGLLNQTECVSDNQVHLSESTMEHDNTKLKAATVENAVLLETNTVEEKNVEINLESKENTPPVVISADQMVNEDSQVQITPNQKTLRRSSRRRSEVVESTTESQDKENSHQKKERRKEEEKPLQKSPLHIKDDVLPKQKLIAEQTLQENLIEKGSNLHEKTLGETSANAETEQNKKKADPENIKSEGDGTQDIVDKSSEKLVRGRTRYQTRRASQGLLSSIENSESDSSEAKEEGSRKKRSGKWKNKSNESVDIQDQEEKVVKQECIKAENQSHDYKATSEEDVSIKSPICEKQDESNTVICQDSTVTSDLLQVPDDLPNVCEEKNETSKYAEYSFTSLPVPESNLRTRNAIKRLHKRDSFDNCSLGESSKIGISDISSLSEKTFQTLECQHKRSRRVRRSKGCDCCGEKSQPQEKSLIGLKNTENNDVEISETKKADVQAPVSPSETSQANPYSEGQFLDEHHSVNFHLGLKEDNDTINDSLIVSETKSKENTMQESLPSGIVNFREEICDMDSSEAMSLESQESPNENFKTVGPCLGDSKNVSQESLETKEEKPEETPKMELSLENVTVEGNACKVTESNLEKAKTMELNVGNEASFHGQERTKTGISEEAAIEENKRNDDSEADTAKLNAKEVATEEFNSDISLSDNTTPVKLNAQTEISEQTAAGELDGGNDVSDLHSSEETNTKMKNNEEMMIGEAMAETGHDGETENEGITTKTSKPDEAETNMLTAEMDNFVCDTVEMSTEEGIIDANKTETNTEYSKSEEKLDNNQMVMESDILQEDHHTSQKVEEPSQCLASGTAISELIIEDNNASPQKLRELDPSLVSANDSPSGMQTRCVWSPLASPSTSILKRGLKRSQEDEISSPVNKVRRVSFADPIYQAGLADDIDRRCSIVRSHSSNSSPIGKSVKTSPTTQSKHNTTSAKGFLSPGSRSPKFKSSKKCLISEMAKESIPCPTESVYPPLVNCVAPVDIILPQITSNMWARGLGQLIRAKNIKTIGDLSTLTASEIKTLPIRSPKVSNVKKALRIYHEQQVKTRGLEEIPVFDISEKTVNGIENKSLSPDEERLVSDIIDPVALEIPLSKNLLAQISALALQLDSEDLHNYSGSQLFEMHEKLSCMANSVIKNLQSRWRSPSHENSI
UniProt Q5JRX3: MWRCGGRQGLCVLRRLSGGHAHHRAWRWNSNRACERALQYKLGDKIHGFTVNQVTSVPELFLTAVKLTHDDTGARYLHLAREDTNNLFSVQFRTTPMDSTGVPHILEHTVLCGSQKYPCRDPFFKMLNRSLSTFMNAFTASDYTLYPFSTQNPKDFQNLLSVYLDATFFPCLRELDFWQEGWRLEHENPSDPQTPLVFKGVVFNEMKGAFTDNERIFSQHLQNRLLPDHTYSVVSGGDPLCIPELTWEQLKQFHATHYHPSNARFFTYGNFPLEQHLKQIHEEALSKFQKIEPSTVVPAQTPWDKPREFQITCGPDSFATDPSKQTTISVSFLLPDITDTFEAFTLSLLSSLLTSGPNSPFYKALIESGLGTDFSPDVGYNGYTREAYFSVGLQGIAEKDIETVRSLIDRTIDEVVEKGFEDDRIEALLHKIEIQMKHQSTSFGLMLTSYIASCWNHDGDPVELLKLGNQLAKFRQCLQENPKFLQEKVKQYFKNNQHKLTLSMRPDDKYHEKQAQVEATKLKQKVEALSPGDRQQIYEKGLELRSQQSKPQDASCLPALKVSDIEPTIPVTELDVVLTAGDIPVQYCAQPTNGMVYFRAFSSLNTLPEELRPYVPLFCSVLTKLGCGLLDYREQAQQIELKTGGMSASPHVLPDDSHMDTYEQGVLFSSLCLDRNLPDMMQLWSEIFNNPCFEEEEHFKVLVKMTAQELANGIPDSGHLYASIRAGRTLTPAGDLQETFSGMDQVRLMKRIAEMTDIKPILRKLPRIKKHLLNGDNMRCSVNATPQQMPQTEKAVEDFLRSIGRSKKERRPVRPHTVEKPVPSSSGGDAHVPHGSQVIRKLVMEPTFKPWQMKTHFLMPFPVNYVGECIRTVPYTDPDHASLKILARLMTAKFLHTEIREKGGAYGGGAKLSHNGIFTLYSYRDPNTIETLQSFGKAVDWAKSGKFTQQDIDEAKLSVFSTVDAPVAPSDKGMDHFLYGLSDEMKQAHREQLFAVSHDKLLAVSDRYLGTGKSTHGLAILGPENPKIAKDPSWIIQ
UniProt Q6P2E9: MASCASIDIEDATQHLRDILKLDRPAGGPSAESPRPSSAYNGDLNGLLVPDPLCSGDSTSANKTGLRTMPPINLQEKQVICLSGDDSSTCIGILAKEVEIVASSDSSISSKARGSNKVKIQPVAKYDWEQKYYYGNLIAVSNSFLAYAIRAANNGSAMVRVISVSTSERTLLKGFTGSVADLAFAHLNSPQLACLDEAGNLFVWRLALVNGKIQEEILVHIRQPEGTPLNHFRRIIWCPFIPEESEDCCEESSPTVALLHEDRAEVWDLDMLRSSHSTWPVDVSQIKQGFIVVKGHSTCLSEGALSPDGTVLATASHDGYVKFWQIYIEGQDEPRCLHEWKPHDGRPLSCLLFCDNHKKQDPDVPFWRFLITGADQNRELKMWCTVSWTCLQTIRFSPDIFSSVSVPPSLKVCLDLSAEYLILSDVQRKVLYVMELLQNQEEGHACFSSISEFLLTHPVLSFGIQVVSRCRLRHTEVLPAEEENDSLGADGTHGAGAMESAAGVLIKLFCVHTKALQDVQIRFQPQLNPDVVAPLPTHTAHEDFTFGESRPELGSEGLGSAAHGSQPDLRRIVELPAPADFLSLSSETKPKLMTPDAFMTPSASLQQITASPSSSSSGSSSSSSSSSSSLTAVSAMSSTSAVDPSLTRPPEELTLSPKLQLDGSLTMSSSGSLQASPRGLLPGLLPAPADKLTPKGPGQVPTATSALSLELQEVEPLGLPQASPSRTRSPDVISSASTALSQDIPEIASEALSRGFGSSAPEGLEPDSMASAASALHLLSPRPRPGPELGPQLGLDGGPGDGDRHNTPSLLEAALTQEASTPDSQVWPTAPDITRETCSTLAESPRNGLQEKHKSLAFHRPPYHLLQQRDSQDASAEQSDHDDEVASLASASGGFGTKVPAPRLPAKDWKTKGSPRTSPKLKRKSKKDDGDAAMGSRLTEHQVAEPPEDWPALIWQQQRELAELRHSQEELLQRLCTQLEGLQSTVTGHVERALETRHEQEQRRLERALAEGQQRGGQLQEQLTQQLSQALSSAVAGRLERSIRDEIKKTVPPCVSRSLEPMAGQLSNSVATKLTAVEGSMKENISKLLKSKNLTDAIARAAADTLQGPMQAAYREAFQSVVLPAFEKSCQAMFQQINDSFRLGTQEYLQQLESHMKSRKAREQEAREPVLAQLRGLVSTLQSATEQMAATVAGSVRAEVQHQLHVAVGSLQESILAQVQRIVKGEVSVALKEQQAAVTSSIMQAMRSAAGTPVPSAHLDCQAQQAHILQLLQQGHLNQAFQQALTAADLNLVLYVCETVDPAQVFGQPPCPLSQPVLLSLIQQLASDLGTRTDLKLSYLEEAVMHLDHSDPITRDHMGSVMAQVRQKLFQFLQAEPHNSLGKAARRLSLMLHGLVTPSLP
UniProt Q5VV42: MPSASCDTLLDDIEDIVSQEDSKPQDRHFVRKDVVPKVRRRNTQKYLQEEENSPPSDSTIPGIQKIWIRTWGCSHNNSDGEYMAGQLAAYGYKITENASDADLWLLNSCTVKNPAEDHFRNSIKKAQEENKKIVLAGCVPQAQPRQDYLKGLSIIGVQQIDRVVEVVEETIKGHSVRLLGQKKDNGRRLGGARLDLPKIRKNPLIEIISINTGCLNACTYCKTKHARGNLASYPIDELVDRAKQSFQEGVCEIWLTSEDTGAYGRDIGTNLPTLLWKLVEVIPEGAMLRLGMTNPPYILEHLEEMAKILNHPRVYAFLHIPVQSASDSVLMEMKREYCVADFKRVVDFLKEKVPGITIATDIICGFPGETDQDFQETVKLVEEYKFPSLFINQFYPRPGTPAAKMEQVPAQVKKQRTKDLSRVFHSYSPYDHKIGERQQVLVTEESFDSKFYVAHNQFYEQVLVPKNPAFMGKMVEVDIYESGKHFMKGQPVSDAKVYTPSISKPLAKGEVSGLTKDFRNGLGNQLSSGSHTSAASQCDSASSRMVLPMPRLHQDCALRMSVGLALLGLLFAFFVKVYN

compound: COC(=O)/C=C/c1ccccc1 [methyl cinnamate]; assay: log2 ratio of iodoacetamide-alkyne labeling of the cysteine site, DMSO over compound (competition); higher = stronger covalent engagement of the cysteine by the compound, active = 1 or more; details: 500 µM; treatment time 1 h; system: HEK293T cell lysate
Summary of the method: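 After 1 h at ambient temperature with vehicle or electrophile (500 µM), HEK293T lysate (2 mg/mL) was labelled for 1 h with iodoacetamide alkyne and clicked to sCIP-TMT reagents. Pooled samples were trypsin-digested overnight at 37 °C, streptavidin-enriched, acid-eluted and analysed by Orbitrap Eclipse LC-MS/MS with FAIMS, then quantified in FragPipe over three replicates with duplicate channels. A cysteine's log2 competition ratio is its mean control-channel over mean compound-channel reporter intensity. Cysteines quantified in only one replicate were not included.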

log2 ratio of iodoacetamide-alkyne labeling, inactive:
LARP1 C953 (UniProt Q6PKG0) 0.11
CWF19L1 C160 (UniProt Q69YN2) 0.13
TTC37 C600 (UniProt Q6PGP7) -0.00516
ANKRD40 C209 (UniProt Q6AI12) 0.306
SPTY2D1 C433 (UniProt Q68D10) 0.333
EXOSC6 C117 (UniProt Q5RKV6) 0.00507
CWF19L1 C288 (UniProt Q69YN2) 0.185
METTL2B C171 (UniProt Q6P1Q9) 0.345
RIF1 C1692 (UniProt Q5UIP0) 0.276
PITRM1 C241 (UniProt Q5JRX3) -0.0292
NOM1 C65 (UniProt Q5C9Z4) 0.314
ANKRD54 C137 (UniProt Q6NXT1) 0.18
EDC4 C976 (UniProt Q6P2E9) 0.314
FBXL19 C145 (UniProt Q6PCT2) 0.0749
CDKAL1 C6 (UniProt Q5VV42) 0.0226
INTS3 C866 (UniProt Q68E01) -0.027

Quoted at random: 2 records from the list, in no set order.
log2 ratio of iodoacetamide-alkyne labeling, inactive:
ANKRD40 C209 (UniProt Q6AI12) 0.306
EXOSC6 C117 (UniProt Q5RKV6) 0.00507
